# In the supplement of paper PMC3334620:
# Over roughly 33,000 sequences, “E-score (-0.5 to 0.5)” has its median near -0.015; the highest 2% begin near 0.3. The list shows a part of the results.
# Target: T1, Abf1 (UniProt P14164)
# T1 sequence: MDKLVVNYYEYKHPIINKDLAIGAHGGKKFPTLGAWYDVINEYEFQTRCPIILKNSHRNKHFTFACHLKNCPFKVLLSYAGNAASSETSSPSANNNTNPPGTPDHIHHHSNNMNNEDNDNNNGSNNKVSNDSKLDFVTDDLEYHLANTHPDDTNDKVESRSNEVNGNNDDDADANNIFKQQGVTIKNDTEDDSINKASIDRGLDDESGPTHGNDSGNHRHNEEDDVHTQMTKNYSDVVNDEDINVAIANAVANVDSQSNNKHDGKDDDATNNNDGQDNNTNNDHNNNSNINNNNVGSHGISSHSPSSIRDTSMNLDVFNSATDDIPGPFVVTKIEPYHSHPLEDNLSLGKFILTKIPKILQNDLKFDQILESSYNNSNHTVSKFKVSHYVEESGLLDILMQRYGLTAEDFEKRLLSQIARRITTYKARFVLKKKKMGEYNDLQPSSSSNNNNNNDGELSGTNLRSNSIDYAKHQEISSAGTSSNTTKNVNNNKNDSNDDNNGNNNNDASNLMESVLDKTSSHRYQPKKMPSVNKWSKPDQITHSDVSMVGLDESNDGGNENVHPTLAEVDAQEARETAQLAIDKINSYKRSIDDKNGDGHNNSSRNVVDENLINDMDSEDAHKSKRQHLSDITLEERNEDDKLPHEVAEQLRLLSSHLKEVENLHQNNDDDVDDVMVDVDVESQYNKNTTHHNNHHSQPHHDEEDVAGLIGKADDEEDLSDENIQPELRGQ
# Experiment: PBM E-score (8-mer binding enrichment) (E-score (-0.5 to 0.5)); higher = stronger / more preferred TF binding
# Conditions: protein concentration: 200 nM; construct: GST-full length
# In short: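 Full-length yeast transcription factors or their DNA-binding domains, GST-tagged and expressed with PURExpress, were applied at about 100-200 nM to universal all-10-mer Agilent arrays. These arrays had been made double-stranded by primer extension on fresh or once-stripped slides. Detection used fluorescent anti-GST, normalisation used masliner, and E-scores for ungapped eight-base words pooled with reverse complements came from the Universal PBM Analysis Suite.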
row,Sequence,PBM E-score
1,GTTACGAA,0.208
2,ACGTGCAA,0.21
3,GAAACCAC,-0.124
4,TGCGCTAA,0.0633
5,GCCGTTCC,0.174
6,CAAACACG,0.125
7,GACTAGAC,-0.132
8,ACGCTGCC,-0.16
9,ATTGGCAG,-0.377
10,CAGCAAAG,-0.128
11,TATCTTGA,0.2
12,GTCTCGAA,-0.0979
13,AGTCTCTC,-0.278
14,AAACAATA,0.147
15,GTACGTAA,0.343
16,AACAGAGT,-0.144
17,AATGCGAA,-0.09
18,GATGGATA,0.0769
19,TAAGGCGA,0.039
20,ACCTTACT,-0.0612
21,CCCAAGAA,-0.0325
22,ATAACTCG,-0.0346
23,GTTATAAC,-0.11
24,GGTAAACC,-0.197
25,AATCCAAT,0.149

row,Sequence,PBM E-score
1,GCCATAAA,-0.0869
2,ACCACCGG,-0.163
3,ACTCACTC,-0.0558
4,CAGCAAGC,-0.15
5,CACCACTC,-0.0646
6,GTCACGCA,0.175
7,ACTATAGA,0.13
8,CCATACAG,-0.192
9,ACCCCTGG,-0.235
10,GAGCCCCA,-0.19
11,AATTGAAC,-0.0198
12,AGCGGCAA,-0.0673
13,CGAGCTTC,0.104
14,AGCGCGCA,-0.0129
15,AATCCCTC,-0.154
16,GCCTATGA,-0.101
17,ACCATCTA,-0.128
18,AGTTCAAG,0.221
19,CATTTGCA,0.105
20,AAGTTGAA,-0.0148
21,CCATACTC,-0.198
22,ATGTCTCG,0.108
23,AGAACCTA,-0.176
24,GACGCAAA,-0.0787
25,GCTGACTA,0.0276

# Rewritten with bars between the fields: part of the list above
row | Sequence | PBM E-score
10 | GAGCCCCA | -0.19
11 | AATTGAAC | -0.0198
12 | AGCGGCAA | -0.0673
14 | AGCGCGCA | -0.0129

# Carrying on.

row,Sequence,PBM E-score
1,TAATATAA,0.196
2,GAAGCGCC,-0.011
3,ACTATGCA,0.171
4,TAGCTTAA,0.0853
5,CCCGCCCC,-0.0886
6,ATCACTAA,0.359
7,CCATGCGA,-0.0106
8,AAGAATCC,0.0253
9,CTGATCGC,-0.0561
10,AATGAGTG,0.105
11,ATGCGGTC,0.0961
12,ACATCTCG,0.0983
13,AGGCATTC,-0.299
14,CCTGCTAG,-0.276
15,AAGGATGC,-0.213
16,GAGTACCA,0.0748
17,AGGTGTAC,-0.093
18,AGTTCCAT,0.0271
19,AAACACCT,0.0682
20,TATCGTGA,0.286
21,TTAGACAA,0.0757
22,GGCGTCTA,-0.164
23,GGTTGTGA,0.0663
24,AAGATGTG,-0.079
25,ACGCCCAC,-0.202

# Single entries from the list:
# CGAGCTTC – PBM E-score: 0.104
# CCCAAGAA – PBM E-score: -0.0325
# ATAACTCG – PBM E-score: -0.0346

# More entries follow.

row,Sequence,PBM E-score
1,GGACTACC,-0.163
2,TCCAAAGA,0.0107
3,CTACTGAG,-0.126
4,CCTCAATA,-0.158
5,ATTACTGA,-0.0334
6,ACGCACCG,-0.0403
7,CGTTGCGA,0.0828
8,GCGCTGAA,-0.0272
9,ATGACCTG,0.0895
10,AAGAAAAA,-0.0775
11,CAGTTCAA,0.0538
12,AACCAAAA,-0.00183
13,ATTTCTAG,0.0967
14,ACCCAGGA,-0.235
15,CCCACATA,-0.154
16,TCTTTGAA,-0.0383
17,CACTATCA,0.0851
18,GAACAAAA,0.226
19,TAGGCTAA,-0.169
20,GTAGTGAA,0.0467
21,CCAGCACA,-0.0686
22,CGCTCCGC,-0.157
23,AATCTGCA,-0.185
24,CACAAGTG,-0.156
25,CACGCGAA,0.0899

row,Sequence,PBM E-score
1,AGAGGTAT,0.189
2,ATGATCGG,0.0902
3,ACGGTTAA,0.0312
4,GTGTATGA,0.00583
5,ATCCTTTA,0.139
6,ATTTATGA,0.229
7,GACGTAAC,-0.0819
8,GTGTAGGA,0.0283
9,AGATTGAC,0.143
10,CGTTTGAC,-0.015
11,AAATTATC,0.264
12,GAAGGATA,-0.147
13,AGCAGAAG,-0.199
14,ACAGGCGC,-0.267
15,GCGGGTTA,0.00545
16,TCGTATCA,0.331
17,GAGCGCAA,-0.171
18,CCGCGAGA,-0.0337
19,CGAGTCAC,-0.0274
20,ATTGGGTC,-0.149
21,CTAGCTAA,-0.0545
22,ACCGCTCG,-0.161
23,GTTGAGTA,0.103
24,CCCAGAAC,-0.144
25,AGCGCGAC,-0.0745

row,Sequence,PBM E-score
1,ATTTCTAA,0.0446
2,CCATAACA,0.0579
3,AGTCTTAA,-0.0694
4,ATTCGGCA,0.0145
5,CATCAAGC,0.0311
6,AGTCCAGC,-0.128
7,AATCCTAC,-0.0455
8,CGAGGTTC,-0.0213
9,AGGTTACC,0.00988
10,ATGAAACC,-0.052
11,AACCTTTG,-0.123
12,GGCCGCCC,-0.352
13,AAGCGTCA,0.0184
14,GGTTAACC,-0.23
15,CGATTCCA,-0.0719
16,AACATTCC,-0.0913
17,AGTCCCAA,-0.167
18,CGGAGTTC,-0.0622
19,AATTGTGA,0.0987
20,ACGGGATC,0.111
21,TCCACCCA,-0.157
22,GAGAGTCA,-0.0659
23,TGTGAGAA,-0.167
24,CTAACCCA,-0.134
25,CGGCCCCC,-0.209

row,Sequence,PBM E-score
1,CTTTAGGA,-0.192
2,TGTTGAAA,0.0577
3,GCACTGAA,-0.274
4,ATGTAGTA,0.229
5,ATCAGCTC,-0.0763
6,TAAGTCTA,-0.136
7,ACCATCAT,0.0107
8,GTTAAATA,0.0863
9,ATGAGCTA,0.0497
10,AAGCTGTG,-0.105
11,GGGATTTA,0.0783
12,CACGTAAC,-0.0481
13,AGTATGTG,-0.0696
14,GCCGCTAC,-0.183
15,GAACGGCA,0.22
16,CAGCACGA,0.226
17,ATGTACAA,0.0303
18,ACGGTACC,0.213
19,CTATGCAA,-0.139
20,CTCCAGTA,-0.0551
21,ACAATATA,0.097
22,TAACCAGA,0.101
